Assay results: patent US5514561A, “Fluorogenic and chromogenic β-lactamase substrates” (priority 1994, dated 1996)

System: β-lactamase
Test: Colorimetric reaction with β-lactamase in the presence of coupling reagents
Assay type: biochemical

SMILES: CO/N=C(\C(=O)N[C@@H]1C(=O)N2C(C(=O)O)=C(COC(=O)Nc3c[nH]c4ccccc34)CS[C@H]12)c1csc(N)n1 [cefotaxime indole carbamate, Cefotaxime Indole Carbamate]
- Product Color (coupling reagent 2-Methoxy-4-morpholino benzene diazonium Cl, saturated solution in water): Green soln./ppt.
- Product Color (coupling reagent Fast Blue BB salt, saturated solution in water): Blue soln./ppt.
- Product Color (coupling reagent Fast Red TR salt, saturated solution in water): Red solution
- Product Color (coupling reagent Fast Red Violet LB salt, saturated solution in water): Orange soln./ppt.
- Product Color (coupling reagent Nitroblue tetrazolium in water): Dark ppt.
